Drawing on article PMC13333962, this text covers binding for 1 molecule.

These are yes or no findings as the source states them, for the method shown. Binding seen in cells or lysates may run through a third protein. Some binding calls cover weakened binding; strength is not graded here.

This assay has as its target full-length Nav1.5 (3xHA-Nav1.5 and 3xFLAG-Nav1.5) (human) (UniProt Q14524). The assay can be described thus: co-IP; anti-HA magnetic beads; 1% digitonin lysates of co-transfected tsA201 cells (48 h) diluted in TBS, 4 °C overnight; eluate in LDS sample buffer reduced with 100 mM DTT; immunoblot.

B1: α1-syntrophin (protein, UniProt Q13424 1-505)
chain: MASGRRAPRTGLLELRAGAGSGAGGERWQRVLLSLAEDVLTVSPADGDPGPEPGAPREQEPAQLNGAAEPGAGPPQLPEALLLQRRRVTVRKADAGGLGISIKGGRENKMPILISKIFKGLAADQTEALFVGDAILSVNGEDLSSATHDEAVQVLKKTGKEVVLEVKYMKDVSPYFKNSTGGTSVGWDSPPASPLQRQPSSPGPTPRNFSEAKHMSLKMAYVSKRCTPNDPEPRYLEICSADGQDTLFLRAKDEASARSWATAIQAQVNTLTPRVKDELQALLAATSTAGSQDIKQIGWLTEQLPSGGTAPTLALLTEKELLLYLSLPETREALSRPARTAPLIATRLVHSGPSKGSVPYDAELSFALRTGTRHGVDTHLFSVESPQELAAWTRQLVDGCHRAAEGVQEVSTACTWNGRPCSLSVHIDKGFTLWAAEPGAARAVLLRQPFEKLQMSSDDGASLLFLDFGGAEGEIQLDLHSCPKTIVFIIHSFLSAKVTRLGLLA
Consider B1, for which the binding entry was “binds”.
